In paper PMC4655273, “Schwann Cell Expressed Nogo-B Modulates Axonal Branching of Adult Sensory Neurons Through the Nogo-B Receptor NgBR” (Frontiers in Cellular Neuroscience, 2015):
Results are given in words; binding and its absence hold for the method and conditions named. In cells and extracts the contact can be indirect. Some binding calls cover weakened binding; strength is not graded here.

Molecular target: T1, Nogo-B (mouse (endogenous in primary Schwann cells)) (UniProt Q99P72)
T1 sequence: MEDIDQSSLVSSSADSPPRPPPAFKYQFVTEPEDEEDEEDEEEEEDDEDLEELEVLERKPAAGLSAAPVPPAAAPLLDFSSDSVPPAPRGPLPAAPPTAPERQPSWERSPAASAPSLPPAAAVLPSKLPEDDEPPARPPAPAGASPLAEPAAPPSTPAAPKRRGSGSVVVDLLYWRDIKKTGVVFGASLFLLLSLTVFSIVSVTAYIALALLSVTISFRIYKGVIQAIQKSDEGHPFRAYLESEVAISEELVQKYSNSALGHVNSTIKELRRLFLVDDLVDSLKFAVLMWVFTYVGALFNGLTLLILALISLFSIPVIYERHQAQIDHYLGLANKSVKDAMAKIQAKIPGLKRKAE
Assay: co-IP; lysate of a co-culture of wildtype Schwann cells and nogo-a/b deficient sensory neurons; incubated with Bianca antiserum or rabbit control IgG for 6 h at 4°C, then protein A/G agarose o/n at 4°C; washed with lysis buffer; Western blot with Bianca antiserum and NgBR antibody

- binding: binds
B1: Nogo-B receptor NgBR (receptor, mouse (endogenous in sensory neurons), UniProt Q99LJ8 1-297, looked up)
chain: MTGLYELVWRVLHALLCLHLTLTSWLRVRFGTWNWIWRRCCRAASAAVLAPLGFTLRKPRAVGRNRRHHRHPHGGPGPGPGPAATHPRLRWRADVRSLQKLPVHMGLLVTEEVQEPSFSDIASLVVWCMAVGISYISVYDHQGIFKRNNSRLMDEILKQQQELLGQDCSKYSAEFANSNDKDDQDLNCPSAVKVLSPEDGKADIVRAAQDFCQLVAQQQRKPTDLDVDLLGSLLSSHGFPDPDLVLKFGPVDSTLGFLPWQIRLTEIVSLPSHLNISYEDFFSALRQYAACEQRLGK
